# Data published in the supplement of paper PMC7024190.
# Counter-ions that a name gives are not always drawn. This is one part of the list. Repeats in this data set agree poorly, so a single value says little.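 A first-round screen of about ten thousand compounds sought those raising reporter output, using human embryonic kidney cells briefly transfected with a plasmid carrying a Renilla luciferase gene driven by the HSV-TK promoter.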
# Tested on: HEK 293FT
# Test: log relative Renilla luciferase luminescence (reporter expression vs reference, reference not stated) (log (base not stated)); higher = higher recombinant reporter expression
# Details: 10 µM; time after transfection 48 h
row,Structure (SMILES),log
1,N=C(N)NC(=N)NCCc1ccccc1 [Phenformin hydrochloride],-0.0328
2,CC(C)(C)NC[C@@H](O)COc1cccc2c1CCCC2=O [(+) -Levobunolol hydrochloride],0.0544
3,CO[C@H]1/C=C/O[C@@]2(C)Oc3c(C)c(O)c4c(O)c(c(/C=N/N5CCN(C6CCCC6)CC5)c(O)c4c3C2=O)NC(=O)/C(C)=C\C=C\[C@H](C)[C@H](O)[C@@H](C)[C@@H](O)[C@@H](C)[C@H](OC(C)=O)[C@@H]1C [Rifapentine],0.0241
4,C[C@H]1O[C@H](O[C@H]2[C@H](O)[C@@H](O)[C@@H](O[C@H]3[C@H](O)[C@@H](O)C(O)O[C@@H]3CO)O[C@@H]2CO)[C@H](O)[C@@H](O)[C@@H]1N[C@H]1C=C(CO)[C@@H](O)[C@H](O)[C@H]1O (stereo partly specified) [Acarbose],-0.0311
5,NNCCc1ccccc1 [Phenelzine sulfate],0.0849
6,CCCc1cc(C(N)=S)ccn1 [Prothionamide],-0.126
7,CC(=O)S[C@@H]1CC2=CC(=O)CC[C@]2(C)[C@H]2CC[C@@]3(C)[C@@H](CC[C@@]34CCC(=O)O4)[C@H]12 [Spironolactone],-0.00861
8,CC(Cc1cccc(C(F)(F)F)c1)NCCOC(=O)c1ccccc1 (stereo unspecified) [Benfluorex hydrochloride],0.0863
9,CNc1ncnc2c1ncn2[C@@H]1O[C@H](CO)[C@@H](O)[C@H]1O [N6-methyladenosine],-0.0154
10,"OCC(O)CN1CCN(c2ccccc2)CC1 (racemic) [Dropropizine (R,S)]",-0.0265
11,CC(C)(C)C(=O)OCOC(=O)[C@@H]1N2C(=O)[C@@H](/N=C/N3CCCCCC3)[C@H]2SC1(C)C [Pivmecillinam hydrochloride],0.00952
12,c1ccc2c(c1)CCCC2C1=NCCN1 (stereo unspecified) [Tetrahydrozoline hydrochloride],0.124
13,C[C@@H](O)[C@H]1C(=O)N2C(C(=O)O)=C(SCCNC=N)C[C@H]12 [Imipenem],-0.0407
14,CCCCCN(C)CCC(O)(P(=O)(O)O)P(=O)(O)O [Ibandronate sodium],0.177
15,O=C1NCCN1c1ncc([N+](=O)[O-])s1 [Niridazole],0.0157
16,C1N2CN3CN1CN(C2)C3 [Methenamine],0.0157
17,C=C(CC)C(=O)c1ccc(OCC(=O)O)c(Cl)c1Cl [Ethacrynic acid],0.0932
18,Nc1ccc(S(=O)(=O)NC(=O)c2ccccc2)cc1 [Sulfabenzamide],0.212
19,CS(=O)(=O)c1ccc([C@@H](O)[C@@H](CF)NC(=O)C(Cl)Cl)cc1 [Florfenicol],0.0842
20,CCN(CC)CCCC(C)Nc1ccnc2cc(Cl)ccc12 (stereo unspecified) [Chloroquine diphosphate],0.148
21,CC(C(=O)O)c1cccc(Oc2ccccc2)c1 (stereo unspecified) [Fenoprofen calcium salt dihydrate],0.0196
22,CCCc1ncc(C[n+]2ccccc2C)c(N)n1 [Amprolium hydrochloride],0.0914
23,CC(=O)OCC(=O)NCCCOc1cccc(CN2CCCCC2)c1 [Roxatidine Acetate HCl],-0.404

row,Structure (SMILES),log
1,CCn1cc(C(=O)O)c(=O)c2cc(F)c(N3CCNCC3)nc21 [Enoxacin],0.122
2,c1ccc(CC2=NCCN2)cc1 [Tolazoline hydrochloride],0.15
3,CC(C)(Oc1ccc(CCNC(=O)c2ccc(Cl)cc2)cc1)C(=O)O [Bezafibrate],0.0554
4,OCCN1CCN(CCCN2c3ccccc3Sc3ccc(C(F)(F)F)cc32)CC1 [Fluphenazine dihydrochloride],0.159
5,O=C(O)CCc1nc(-c2ccccc2)c(-c2ccccc2)o1 [Oxaprozin],0.0612
6,Clc1ccc2c(c1)C(N1CCNCC1)=Nc1ccccc1O2 [Amoxapine],-1.58
7,O=C1c2ccccc2C(=O)C1c1ccccc1 [Phenindione],0.0676
8,CC[C@H]1OC(=O)[C@H](C)[C@@H](O[C@H]2C[C@@](C)(OC)[C@@H](O)[C@H](C)O2)[C@H](C)[C@@H](O[C@@H]2O[C@H](C)C[C@H](N(C)C)[C@H]2O)[C@](C)(O)C[C@@H](C)C(=O)[C@H](C)[C@@H](O)[C@]1(C)O [Erythromycin],0.0739
9,CO[C@H]1/C=C/O[C@@]2(C)Oc3c(C)c(O)c4c(O)c(c(/C=N/N5CCN(C)CC5)c(O)c4c3C2=O)NC(=O)/C(C)=C\C=C\[C@H](C)[C@H](O)[C@@H](C)[C@@H](O)[C@@H](C)[C@H](OC(C)=O)[C@@H]1C [Rifampicin],0.174
10,Cc1c(Cl)cccc1Nc1ccccc1C(=O)O [Tolfenamic acid],0.121
11,CCCSc1ccc2[nH]c(NC(=O)OC)nc2c1 [Albendazole],-0.22
12,Cc1ccc(N(CC2=NCCN2)c2cccc(O)c2)cc1 [Phentolamine hydrochloride],0.0641
13,CCc1ccc(CCOc2ccc(CC3SC(=O)NC3=O)cc2)nc1 (stereo unspecified) [Pioglitazone],0.00465
14,CN(C)[C@@H]1C(O)=C(C(N)=O)C(=O)[C@@]2(O)C(O)=C3C(=O)c4c(O)cccc4[C@@](C)(O)[C@H]3C[C@@H]12 [Tetracycline hydrochloride],0.0795
15,COCCCC/C(=N\OCCN)c1ccc(C(F)(F)F)cc1 [Fluvoxamine maleate],0.0806
16,C[C@]12CCC(=O)C=C1CC[C@@H]1[C@@H]2C(=O)C[C@@]2(C)[C@H]1CC[C@]2(O)C(=O)CO [Cortisone],0.0283
17,CCOC(=O)N1CCC(=C2c3ccc(Cl)cc3CCc3cccnc32)CC1 [Loratadine],0.0842
18,COc1ccc(CC(C)NCC(O)c2ccc(O)c(NC=O)c2)cc1 (stereo unspecified) [Formoterol fumarate],-0.00598
19,CN1CCN(CCCN2c3ccccc3Sc3ccc(S(=O)(=O)N(C)C)cc32)CC1 [Thioproperazine dimesylate],0.124
20,O=C(O)Cc1ccccc1Nc1c(Cl)cccc1Cl [Diclofenac sodium],-0.111
21,C[C@@H](c1ncncc1F)[C@](O)(Cn1cncn1)c1ccc(F)cc1F [Voriconazole],0.00628
22,CC(=O)Oc1cc(C(F)(F)F)ccc1C(=O)O [Triflusal],0.14
23,CC(C)Cc1ccc([C@H](C)C(=O)O)cc1 [S-(+)-ibuprofen],0.107

# Given bar-delimited: 3 of the compounds above
row | Structure (SMILES) | log
3 | CC(C)(Oc1ccc(CCNC(=O)c2ccc(Cl)cc2)cc1)C(=O)O [Bezafibrate] | 0.0554
4 | OCCN1CCN(CCCN2c3ccccc3Sc3ccc(C(F)(F)F)cc32)CC1 [Fluphenazine dihydrochloride] | 0.159
5 | O=C(O)CCc1nc(-c2ccccc2)c(-c2ccccc2)o1 [Oxaprozin] | 0.0612
